## Library screen at single concentrations

Source: ChEMBL document CHEMBL3988442, “University of Dundee, Small-Polar-MMV Screening Library” (2021).

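Phenotypic screen: M. tuberculosis growth, cholesterol and DPPC medium, 4 days; the read-out is not stated. Tested at 50 µM. Direction is inferred from retests: higher values go with more growth inhibition. About 69,000 compounds were tested under these conditions; 0.54% (about 370) showed 50% or more at least once.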

Values are the deposited “Percent Effect”, in %.
How 0% and 100% were set is not recorded. Most values in the screen are low, and negative values occur.
Compounds were drawn at random from those tested, without regard to their results.
Two or more numbers in one place are separate tests of the same structure; such repeats can differ widely.

For CCn1cc(C(=O)N(C)Cc2c(F)cccc2Cl)cn1 the result was 10.27%.
For CC(C)N1C(=O)CN(CCCO)CC1(C)C the result was -6.884%.
For CN(C)CCN1CCC2(CCCN(Cc3cccn3C)C2)C1=O.O=C(O)C(F)(F)F.O=C(O)C(F)(F)F (stereo not drawn) the result was 10.16% and -8.682%.
For CCCc1nnc(NCc2ccc(OC)c(C#N)c2)o1 the result was -8.582%.
For Cc1ccsc1CNCc1c(C(C)C)nn(C)c1N1CCOCC1 the result was 8.493%.
For Cc1nn(C)c(C)c1NC(=O)CNC(c1ccc(F)cc1)C1CCC1 (stereo not drawn) the result was -4.016%.
For CNS(=O)(=O)CCCNC(C)(C)c1nc(C)cs1 the result was -17.62%.
For COc1c(C)cnc(CSc2nnc(N)s2)c1C the result was 11.73% and 50.34%.
For Cc1nn(CCO)c(C)c1CNC1CCCCc2ccccc21 (stereo not drawn) the result was 20.69%.
For Cn1nc(C2CC2)cc1C(=O)N1CCC(c2nnsc2S(C)(=O)=O)CC1 the result was -9.233% and -2.035%.
For COc1cc(C#N)ccc1OCC(=O)N(C1CC1)C(C)c1ccco1 (stereo not drawn) the result was 6.597%.
For COc1cc(NCc2c(C)noc2C)c(OC)cc1Cl the result was -18.75%.
For CC(C)CN1CCC2(CCN(Cc3ccc(F)cc3)CC2)C1=O.O=C(O)C(F)(F)F the result was 2.213%.
For Cc1nccn1CCC1CCN(C(C)C)CC1 the result was -6.118%.
For Cc1cc2c(=O)n3c(nc2s1)CCN(C(=O)c1scnc1C)CC3 the result was -13.39%.
For CCc1cc(N(C)Cc2cc[nH]n2)n2nc(C)c(C)c2n1 the result was 18.81%.
For Cn1cccc1C(=O)NCc1cn2c(n1)CN(S(=O)(=O)C1CC1)CC2 the result was -6.314% and -7.434%.
For CCOc1cccc(CN2CCCn3nc(CNS(C)(=O)=O)cc3C2)c1 the result was -7.678%.
For COc1ccc(C(=O)N2CCOCC2c2[nH]ncc2C)cc1F (stereo not drawn) the result was -4.756% and 6.054%.
For CC(C)(C)c1ncc2c(n1)CN(C(=O)c1ccc(-c3nc[nH]n3)cc1)C2 the result was -3.082%.
For Cc1nc(O)cc(C2CCN(C(=O)C(C)Cn3nc(C)nc3C)CC2)n1 (stereo not drawn) the result was -16.75%.
For N#CCCN(Cc1ccccn1)Cn1cc(Cl)cn1 the result was 11.48%.
For Cc1noc(C2CCC3(CCN(C(=O)c4cnn(C)c4)CC3)O2)n1 (stereo not drawn) the result was -5.809%.
For c1csc(C2(NCc3csc(C4CC4)n3)CCCC2)n1 the result was 5.669%.
For COc1cc(C(=O)Nc2nc(C)no2)ccc1C the result was 16.33%.
For CCCNC(=O)C1CCN(CC(O)c2ccccc2)CC1 (stereo not drawn) the result was -21.25%.
For Cc1csc(NC(=O)c2cnc(C3CCCN(C)C3)cn2)n1 (stereo not drawn) the result was -0.9168%.
For COc1cccc(CN2CCCCC2c2n[nH]cc2-c2cc(C)no2)c1.Cl (stereo not drawn) the result was -12.87%.
For CCOc1cc(CNC(=O)NCc2nc(C)c(C)s2)ccn1 the result was 0.7322%.
For Cc1nc(-c2ccco2)ccc1C(=O)NCCN1CCN(C)CC1 the result was -1.057%.
For COc1ccc(CN2CC(=O)N(c3ccc(C)cc3)CC2C)cc1O (stereo not drawn) the result was -6.202%.
For CNCc1cnc(Nc2ccccc2)nc1 the result was -3.321%.
For Nc1ccnc(N2C[C@H](O)[C@@H](N3CCN(c4ccccn4)CC3)C2)n1 the result was -4.421%.
For CNc1cccc(C2CCCN(C(=O)c3ccn(C)n3)C2)n1 (stereo not drawn) the result was -20.09%.
For CC(=O)NC(C)C(=O)N(Cc1ccc(C)c(C)c1)C1CC1 (stereo not drawn) the result was 10.48%.
For O=C(NC1CCCN(c2ccc(OC(F)F)cc2)C1)c1cc[nH]n1 (stereo not drawn) the result was 5.253%.
For Cc1nc(C2CCCN(C(=O)CCCOc3cccc(F)c3)C2)no1 (stereo not drawn) the result was 8.34% and -6.066%.
For Cc1cc(C)n(C2CCCN(C(=O)c3cc(C(N)=O)cs3)C2)n1 (stereo not drawn) the result was -12.97%.
For COc1ccc2c(c1)nc1n2[C@@H](CNCc2ncccc2C)COC1 the result was -4.204%.
For Nc1ncccc1C(=O)NCc1cccc(Br)c1 the result was -0.9858%.
For CN(C)c1nccc(C2CCN(c3ncccn3)CC2)n1 the result was 22.6%.
For Cc1cnn(CC2CCCN2C(=O)c2ccccc2-n2cnnn2)c1 (stereo not drawn) the result was -7.989%.
For COCCN1CCCC2(CCN(c3cccc(C(F)(F)F)n3)C2)C1=O (stereo not drawn) the result was 6.393%.
For O=C1CC(NS(=O)(=O)c2ccc(Cl)cc2)CN1 (stereo not drawn) the result was -17.26%.
For Cc1nc(CN2CCCC(N(C)Cc3c(C)noc3C)C2)no1 (stereo not drawn) the result was 7.817%.

For reference, 5 entries once more:

| Compound | percent effect |
|---|---|
| `COc1ccc(C(=O)N2CCOCC2c2[nH]ncc2C)cc1F` (stereo not drawn) | -4.756 and 6.054 |
| `CCCNC(=O)C1CCN(CC(O)c2ccccc2)CC1` (stereo not drawn) | -21.25 |
| `CC(C)(C)c1ncc2c(n1)CN(C(=O)c1ccc(-c3nc[nH]n3)cc1)C2` | -3.082 |
| `CN(C)CCN1CCC2(CCCN(Cc3cccn3C)C2)C1=O.O=C(O)C(F)(F)F.O=C(O)C(F)(F)F` (stereo not drawn) | 10.16 and -8.682 |
| `Cn1nc(C2CC2)cc1C(=O)N1CCC(c2nnsc2S(C)(=O)=O)CC1` | -9.233 and -2.035 |